Results from the supplement of paper PMC11732987, “Enantioselective OTUD7B fragment discovery through chemoproteomics screening and high-throughput optimisation” (Communications Chemistry, 2025).
The other results are listed elsewhere or left out. The data scatter; read single values as rough.

By UniProt entry, the sequences of proteins in these tests, tags left out. Where a name states a change or a piece, a line headed by the entry shows the natural chain unless it says otherwise. Residues count along the entry.
UniProt O60942: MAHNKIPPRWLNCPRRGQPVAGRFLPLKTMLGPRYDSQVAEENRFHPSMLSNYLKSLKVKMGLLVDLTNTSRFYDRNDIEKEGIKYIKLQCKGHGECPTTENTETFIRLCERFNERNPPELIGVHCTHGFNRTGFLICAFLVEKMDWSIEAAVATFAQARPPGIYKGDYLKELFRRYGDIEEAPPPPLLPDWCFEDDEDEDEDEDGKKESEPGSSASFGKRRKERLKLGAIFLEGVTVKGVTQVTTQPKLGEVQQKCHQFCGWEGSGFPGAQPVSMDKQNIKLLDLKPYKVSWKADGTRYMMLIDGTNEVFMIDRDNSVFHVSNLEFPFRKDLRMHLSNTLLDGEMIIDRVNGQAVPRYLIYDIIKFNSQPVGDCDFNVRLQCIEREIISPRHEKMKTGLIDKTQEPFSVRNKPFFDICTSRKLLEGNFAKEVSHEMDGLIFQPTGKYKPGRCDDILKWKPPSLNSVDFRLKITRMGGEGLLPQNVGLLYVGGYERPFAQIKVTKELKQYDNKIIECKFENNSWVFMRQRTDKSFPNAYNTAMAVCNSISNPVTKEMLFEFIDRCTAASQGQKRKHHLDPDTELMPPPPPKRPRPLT
UniProt P27694, whole entry, looked up: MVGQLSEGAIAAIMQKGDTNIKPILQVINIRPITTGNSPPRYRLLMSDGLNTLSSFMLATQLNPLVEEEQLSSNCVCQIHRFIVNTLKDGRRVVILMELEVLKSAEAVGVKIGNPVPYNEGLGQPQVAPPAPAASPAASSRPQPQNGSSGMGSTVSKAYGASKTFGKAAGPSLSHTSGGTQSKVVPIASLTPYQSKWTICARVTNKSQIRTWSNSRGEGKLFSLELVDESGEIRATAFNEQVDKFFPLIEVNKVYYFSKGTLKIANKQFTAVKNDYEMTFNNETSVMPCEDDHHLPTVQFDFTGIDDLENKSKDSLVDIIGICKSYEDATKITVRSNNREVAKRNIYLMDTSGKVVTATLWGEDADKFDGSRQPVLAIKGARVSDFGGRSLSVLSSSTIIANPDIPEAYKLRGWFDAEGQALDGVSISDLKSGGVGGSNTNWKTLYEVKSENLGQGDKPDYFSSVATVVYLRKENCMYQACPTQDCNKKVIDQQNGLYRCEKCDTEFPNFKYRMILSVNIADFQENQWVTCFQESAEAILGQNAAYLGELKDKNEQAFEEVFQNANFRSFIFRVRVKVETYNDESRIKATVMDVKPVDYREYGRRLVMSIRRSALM
UniProt Q9HB90, 25-63: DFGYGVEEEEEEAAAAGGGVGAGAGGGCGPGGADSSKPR
UniProt Q13464: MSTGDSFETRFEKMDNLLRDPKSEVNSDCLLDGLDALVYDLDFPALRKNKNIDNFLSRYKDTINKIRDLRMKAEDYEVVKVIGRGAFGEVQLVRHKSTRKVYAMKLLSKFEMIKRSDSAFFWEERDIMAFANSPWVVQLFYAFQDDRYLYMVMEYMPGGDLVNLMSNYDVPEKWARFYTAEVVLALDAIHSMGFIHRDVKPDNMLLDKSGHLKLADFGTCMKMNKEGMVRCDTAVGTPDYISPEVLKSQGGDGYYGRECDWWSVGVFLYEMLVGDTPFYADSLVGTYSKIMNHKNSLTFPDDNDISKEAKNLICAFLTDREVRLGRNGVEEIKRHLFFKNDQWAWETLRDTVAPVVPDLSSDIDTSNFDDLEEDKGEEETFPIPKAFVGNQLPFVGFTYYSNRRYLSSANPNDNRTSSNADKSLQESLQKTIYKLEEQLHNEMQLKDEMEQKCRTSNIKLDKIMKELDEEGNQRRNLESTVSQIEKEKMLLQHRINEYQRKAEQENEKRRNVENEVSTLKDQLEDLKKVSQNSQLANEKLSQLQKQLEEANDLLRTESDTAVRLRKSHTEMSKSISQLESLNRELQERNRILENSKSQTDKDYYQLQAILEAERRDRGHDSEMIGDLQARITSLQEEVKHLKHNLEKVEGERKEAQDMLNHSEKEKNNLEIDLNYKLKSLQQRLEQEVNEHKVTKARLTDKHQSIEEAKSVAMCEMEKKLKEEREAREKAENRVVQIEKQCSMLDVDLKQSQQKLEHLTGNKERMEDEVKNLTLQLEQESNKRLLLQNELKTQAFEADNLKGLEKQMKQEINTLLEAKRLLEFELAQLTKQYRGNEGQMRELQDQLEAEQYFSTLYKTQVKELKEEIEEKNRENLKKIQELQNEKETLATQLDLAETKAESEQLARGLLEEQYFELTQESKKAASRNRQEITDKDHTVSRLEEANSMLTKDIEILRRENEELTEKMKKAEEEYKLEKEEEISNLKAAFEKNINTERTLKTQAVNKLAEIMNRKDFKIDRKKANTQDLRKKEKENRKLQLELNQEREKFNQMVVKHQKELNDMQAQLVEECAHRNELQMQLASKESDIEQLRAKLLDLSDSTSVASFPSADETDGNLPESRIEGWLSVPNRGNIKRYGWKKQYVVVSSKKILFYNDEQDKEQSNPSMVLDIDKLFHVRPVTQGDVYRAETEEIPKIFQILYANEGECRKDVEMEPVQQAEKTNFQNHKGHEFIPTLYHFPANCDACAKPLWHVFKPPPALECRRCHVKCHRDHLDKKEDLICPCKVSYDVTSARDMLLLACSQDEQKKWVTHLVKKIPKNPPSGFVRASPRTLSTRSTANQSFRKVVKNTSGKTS
UniProt Q9Y265, whole entry, looked up: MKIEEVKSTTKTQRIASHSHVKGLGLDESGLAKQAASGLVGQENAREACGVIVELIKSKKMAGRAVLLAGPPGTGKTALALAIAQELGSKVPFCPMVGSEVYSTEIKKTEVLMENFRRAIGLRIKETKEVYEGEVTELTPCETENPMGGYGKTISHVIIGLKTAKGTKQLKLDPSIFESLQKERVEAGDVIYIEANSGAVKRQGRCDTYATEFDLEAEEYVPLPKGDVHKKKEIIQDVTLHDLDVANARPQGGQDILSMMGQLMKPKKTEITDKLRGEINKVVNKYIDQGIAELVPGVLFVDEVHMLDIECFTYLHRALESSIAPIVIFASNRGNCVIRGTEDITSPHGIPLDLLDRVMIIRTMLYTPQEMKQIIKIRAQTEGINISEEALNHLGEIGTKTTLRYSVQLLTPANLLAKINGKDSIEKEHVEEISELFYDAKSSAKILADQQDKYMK
UniProt O75818: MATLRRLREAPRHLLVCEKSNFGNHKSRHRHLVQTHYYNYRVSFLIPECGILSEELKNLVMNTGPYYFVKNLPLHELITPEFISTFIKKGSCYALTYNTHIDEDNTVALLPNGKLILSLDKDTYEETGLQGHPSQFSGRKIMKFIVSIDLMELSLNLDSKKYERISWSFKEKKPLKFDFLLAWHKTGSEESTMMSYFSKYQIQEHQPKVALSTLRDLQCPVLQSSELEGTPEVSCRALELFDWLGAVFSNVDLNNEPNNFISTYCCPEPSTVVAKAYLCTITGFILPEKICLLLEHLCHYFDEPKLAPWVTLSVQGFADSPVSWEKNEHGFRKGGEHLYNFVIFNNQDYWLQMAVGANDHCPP
UniProt Q8N5U6: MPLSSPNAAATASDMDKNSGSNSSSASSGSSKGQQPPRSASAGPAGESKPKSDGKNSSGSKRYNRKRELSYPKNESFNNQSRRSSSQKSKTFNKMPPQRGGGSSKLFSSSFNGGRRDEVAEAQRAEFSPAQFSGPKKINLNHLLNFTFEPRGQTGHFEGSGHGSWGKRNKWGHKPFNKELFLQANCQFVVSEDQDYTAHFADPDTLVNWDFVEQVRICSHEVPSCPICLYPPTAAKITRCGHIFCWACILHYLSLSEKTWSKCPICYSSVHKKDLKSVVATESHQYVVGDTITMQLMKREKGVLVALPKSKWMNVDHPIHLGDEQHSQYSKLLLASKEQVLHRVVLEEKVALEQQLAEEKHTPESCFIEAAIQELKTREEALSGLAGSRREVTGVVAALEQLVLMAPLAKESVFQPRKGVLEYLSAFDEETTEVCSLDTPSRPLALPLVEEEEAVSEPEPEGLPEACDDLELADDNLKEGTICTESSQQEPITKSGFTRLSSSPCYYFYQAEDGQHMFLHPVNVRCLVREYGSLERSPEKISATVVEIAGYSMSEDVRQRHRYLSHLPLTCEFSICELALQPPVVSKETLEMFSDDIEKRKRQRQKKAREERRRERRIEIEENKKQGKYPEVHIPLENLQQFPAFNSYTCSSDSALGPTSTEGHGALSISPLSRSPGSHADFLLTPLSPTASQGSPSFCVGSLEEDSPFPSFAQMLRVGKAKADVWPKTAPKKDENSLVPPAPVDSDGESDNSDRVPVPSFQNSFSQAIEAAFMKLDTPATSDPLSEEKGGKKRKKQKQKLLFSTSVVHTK
UniProt Q7L4I2: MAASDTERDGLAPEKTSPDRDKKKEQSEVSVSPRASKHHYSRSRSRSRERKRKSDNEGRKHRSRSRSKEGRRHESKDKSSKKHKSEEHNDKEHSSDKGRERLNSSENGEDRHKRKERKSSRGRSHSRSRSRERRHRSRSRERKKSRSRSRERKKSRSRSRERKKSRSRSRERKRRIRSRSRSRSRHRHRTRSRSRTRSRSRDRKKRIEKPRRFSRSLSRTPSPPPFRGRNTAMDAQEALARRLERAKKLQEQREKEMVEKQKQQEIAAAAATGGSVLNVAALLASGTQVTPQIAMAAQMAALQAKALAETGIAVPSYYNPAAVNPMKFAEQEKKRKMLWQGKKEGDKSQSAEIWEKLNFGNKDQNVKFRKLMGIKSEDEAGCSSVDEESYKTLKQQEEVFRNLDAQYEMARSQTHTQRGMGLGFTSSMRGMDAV
UniProt Q96T51: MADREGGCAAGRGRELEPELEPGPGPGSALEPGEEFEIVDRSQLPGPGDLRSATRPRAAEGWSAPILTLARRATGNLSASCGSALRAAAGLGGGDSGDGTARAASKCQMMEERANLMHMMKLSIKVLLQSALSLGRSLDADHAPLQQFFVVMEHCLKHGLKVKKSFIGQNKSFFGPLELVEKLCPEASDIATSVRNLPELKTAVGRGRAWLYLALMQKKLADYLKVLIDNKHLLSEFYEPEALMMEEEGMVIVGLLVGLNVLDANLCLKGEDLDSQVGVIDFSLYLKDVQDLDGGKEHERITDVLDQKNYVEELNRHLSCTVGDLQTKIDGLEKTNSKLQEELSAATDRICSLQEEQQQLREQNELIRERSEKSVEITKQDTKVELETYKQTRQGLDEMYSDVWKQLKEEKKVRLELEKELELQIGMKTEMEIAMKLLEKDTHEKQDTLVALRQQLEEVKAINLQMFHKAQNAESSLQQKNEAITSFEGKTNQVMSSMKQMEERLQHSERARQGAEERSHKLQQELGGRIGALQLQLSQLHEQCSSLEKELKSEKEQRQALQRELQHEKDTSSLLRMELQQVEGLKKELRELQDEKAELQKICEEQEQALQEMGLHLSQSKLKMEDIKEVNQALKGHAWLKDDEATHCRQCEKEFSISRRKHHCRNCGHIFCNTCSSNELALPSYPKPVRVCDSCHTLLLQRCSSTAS
UniProt Q96ER3: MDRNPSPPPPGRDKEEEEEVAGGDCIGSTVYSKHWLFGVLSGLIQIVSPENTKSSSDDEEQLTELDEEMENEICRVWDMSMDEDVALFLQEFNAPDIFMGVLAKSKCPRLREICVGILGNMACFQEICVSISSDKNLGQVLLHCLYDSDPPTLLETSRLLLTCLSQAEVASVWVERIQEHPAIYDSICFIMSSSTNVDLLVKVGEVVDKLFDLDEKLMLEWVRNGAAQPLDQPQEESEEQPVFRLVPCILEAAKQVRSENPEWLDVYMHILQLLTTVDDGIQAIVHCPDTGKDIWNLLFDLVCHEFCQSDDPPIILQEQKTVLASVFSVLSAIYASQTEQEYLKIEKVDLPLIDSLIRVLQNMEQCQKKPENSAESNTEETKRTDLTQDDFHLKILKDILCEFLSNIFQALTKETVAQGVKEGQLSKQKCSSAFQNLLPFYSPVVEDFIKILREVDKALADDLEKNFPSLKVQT
UniProt Q9HA92: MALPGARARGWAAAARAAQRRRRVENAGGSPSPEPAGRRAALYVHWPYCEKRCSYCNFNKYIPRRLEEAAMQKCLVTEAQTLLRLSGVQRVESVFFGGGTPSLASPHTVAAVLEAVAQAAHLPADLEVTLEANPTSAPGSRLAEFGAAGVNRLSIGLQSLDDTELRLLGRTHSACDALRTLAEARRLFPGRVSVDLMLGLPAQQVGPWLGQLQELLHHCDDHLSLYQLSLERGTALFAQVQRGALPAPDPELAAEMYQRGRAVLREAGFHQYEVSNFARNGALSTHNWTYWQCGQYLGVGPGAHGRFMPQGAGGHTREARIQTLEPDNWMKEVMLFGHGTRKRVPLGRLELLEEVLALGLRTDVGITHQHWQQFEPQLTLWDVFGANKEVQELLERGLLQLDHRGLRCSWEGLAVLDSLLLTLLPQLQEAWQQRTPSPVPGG
UniProt Q9Y3A4: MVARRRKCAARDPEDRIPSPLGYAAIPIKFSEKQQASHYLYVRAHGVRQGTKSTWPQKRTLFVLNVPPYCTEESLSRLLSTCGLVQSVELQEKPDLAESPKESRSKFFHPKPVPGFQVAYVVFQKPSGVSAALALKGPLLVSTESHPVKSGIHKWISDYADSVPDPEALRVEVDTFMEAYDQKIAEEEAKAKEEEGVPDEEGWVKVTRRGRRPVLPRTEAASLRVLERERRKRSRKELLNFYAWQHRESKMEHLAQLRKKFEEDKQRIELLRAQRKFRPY

Assays:
[1] = compound: ClCC(=O)N[C@@H]1CCCc2ccccc12; test: log2 mean competition ratio of IA-DTB cysteine labelling (DMSO/compound) (log2 ratio); higher = stronger cysteine engagement by compound; details: treatment time: 4 h, cell line lysate: HEK293T
Protocol: (§1)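 IA-DTB competitive cysteine chemoproteomics in HEK293T RIPA lysate. Lysates were treated with compound 29 or 30 at 50 or 200 µM for 4 h, then IA-DTB (500 µM, 1 h), trypsin-digested, NeutrAvidin-enriched and analysed by diaPASEF. Competition ratio = intensity DMSO / intensity compound (n=4 treated, n=64 DMSO); binding: mean log2 CR ≥ 1 and p ≤ 0.05 plus QC filters. Target is the cysteine site.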

[2] = compound: ClCC(=O)N[C@H]1CCCc2ccccc12; test: as above; details: treatment time: 4 h, cell line lysate: HEK293T
Protocol: as §1

Target | log2 mean competition ratio ([1]; 50 µM) | log2 mean competition ratio ([1]; 200 µM) | log2 mean competition ratio ([2]; 50 µM) | log2 mean competition ratio ([2]; 200 µM)
RPS6KA5 C631 (UniProt O75582) | 0.0764 | 0.235 | -0.314 | 0.198
RNGTT C565 (UniProt O60942) | -0.136 | -0.163 | -0.0298 | 0.0934
SACS C3756 (UniProt Q9NZJ4) | 0.539 | -0.191 | 0.397 | 0.00713
RPA1 C503 (UniProt P27694) | -0.173 | -0.233 | -0.4 | -0.191
RRAGC C52 (UniProt Q9HB90) | -0.675 | 0.0915 | -0.223 | 0.0931
ROCK1 C714 (UniProt Q13464) | -0.033 | -0.22 | 0.11 | -0.165
RUVBL1 C49 (UniProt Q9Y265) | -0.198 | 0.053 | -0.203 | 0.0341
RPP40 C49 (UniProt O75818) | -0.0869 | -0.231 | -0.301 | -0.41
RPS28 C27 (UniProt P62857) | 0.369 | -0.362 | 0.543 | -0.366
RNF10 C366 (UniProt Q8N5U6) | 0.169 | 0.176 | 0.308 | 0.0741
RSRC2 C382 (UniProt Q7L4I2) | -0.0744 | 0.316 | -0.325 | 0.181
RSL1D1 C96 (UniProt O76021) | -0.181 | -0.0087 | -0.102 | 0.133
RUFY1 C81 (UniProt Q96T51) | 0.582 | 0.224 | 0.617 | 0.0914
SAAL1 C366 (UniProt Q96ER3) | -0.0564 | 0.0746 | -0.153 | 0.0883
RSAD1 C74 (UniProt Q9HA92) | 0.413 | 0.354 | 0.266 | 0.0828
RRP7A C8 (UniProt Q9Y3A4) | 0.117 | 0.194 | -0.0878 | 0.0939

As a working copy, some entries already given:
Target | log2 mean competition ratio ([1]; 50 µM) | log2 mean competition ratio ([1]; 200 µM) | log2 mean competition ratio ([2]; 50 µM) | log2 mean competition ratio ([2]; 200 µM)
RSRC2 C382 (UniProt Q7L4I2) | -0.0744 | 0.316 | -0.325 | 0.181
RSL1D1 C96 (UniProt O76021) | -0.181 | -0.0087 | -0.102 | 0.133
